Results deposited as PubChem BioAssay AID1159578 (Peter MacCallum Cancer Centre, 2015)
Test: 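siRNA pools altering how lymphatic endothelial cells close a scratch wound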 (primary screen). Cells: human lymphatic endothelial cells. Reagent: siRNA pool against human genes, 40 nM. Time to read-out: 48 h after transfection. Read-out: 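Cells stained with dye and imaged after a scratch; covered wound area and nuclei counted, duplicates averaged, migration set against mock wells and turned into a robust z-score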. Reading the numbers: migration robust z-score: higher = faster migration into the scratch; migration relative to mock: higher = more scratch area covered than mock; nuclei per well: higher = more cells in the well. Hit rule: 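Pools averaging fewer than 3300 nuclei are never called; remaining pools count as changed when migration robust z lies outside -2 to 2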. Meaning of the calls: active = migration changed; inactive = no migration change, or too few cells.
This is an unselected part of about 18,000 reagents. In the full data, about 1,030 (5.7%) are marked active. 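Inactive calls also include pools with fewer than 3300 nuclei, whose migration was not assessed.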 Raw values vary from plate to plate and are shown uncorrected. The numbers tell different reagents against one gene apart.

migration robust z-score | migration class with cell-count check | migration relative to mock | nuclei per well, duplicate mean | Call | target | reagent
0.76 | migration z between -2 and 2; enough cells | 1.07 | 5314 | inactive | COMMD10 (COMM domain containing 10) | 1
-1.48 | migration z between -2 and 2; enough cells | 0.5 | 5670 | inactive | THBS4 (thrombospondin 4) | 1
0.46 | migration z between -2 and 2; enough cells | 1 | 7528 | inactive | ZNF121 (zinc finger protein 121) | 1
-3.87 | migration z below -2; enough cells | 0.06 | 4042 | active | GCK (glucokinase) | 1
-0.08 | migration z between -2 and 2; enough cells | 0.86 | 5034 | inactive | FAM53C (family with sequence similarity 53 member C) | 1
-1.72 | migration z between -2 and 2; enough cells | 0.44 | 5382 | inactive | SYT10 (synaptotagmin 10) | 1
-2.49 | under 3300 nuclei; migration not judged | 0.32 | 1737 | inactive | PNKP (polynucleotide kinase 3'-phosphatase) | 1
2.29 | migration z above 2; enough cells | 1.48 | 5956 | active | RUFY4 (RUN and FYVE domain containing 4) | 1
-0.92 | migration z between -2 and 2; enough cells | 0.64 | 5078 | inactive | SEMA4F (ssemaphorin 4F) | 1
0.25 | migration z between -2 and 2; enough cells | 0.95 | 4506 | inactive | CFHR5 (complement factor H related 5) | 1
-1.03 | migration z between -2 and 2; enough cells | 0.62 | 5368 | inactive | WNT10A (Wnt family member 10A) | 1
1.64 | migration z between -2 and 2; enough cells | 1.31 | 4852 | inactive | ZNF229 (zinc finger protein 229) | 1
0.58 | migration z between -2 and 2; enough cells | 1.04 | 6366 | inactive | ZNF665 (zinc finger protein 665) | 1
0.67 | migration z between -2 and 2; enough cells | 1.06 | 5441 | inactive | ANKRD9 (ankyrin repeat domain 9) | 1
0.1 | migration z between -2 and 2; enough cells | 0.92 | 5992 | inactive | ZC3H18 (zinc finger CCCH-type containing 18) | 1
-0.86 | migration z between -2 and 2; enough cells | 0.64 | 5632 | inactive | PSMA8 (proteasome 20S subunit alpha 8) | 1
-0.59 | migration z between -2 and 2; enough cells | 0.74 | 5992 | inactive | FAM221A (family with sequence similarity 221 member A) | 1
-3.48 | under 3300 nuclei; migration not judged | 0.14 | 3080 | inactive | GMEB1 (glucocorticoid modulatory element binding protein 1) | 1
2.21 | migration z above 2; enough cells | 1.23 | 4885 | active | PRKCG (protein kinase C gamma) | 1
-0.22 | migration z between -2 and 2; enough cells | 0.83 | 6422 | inactive | CHIC1 (cysteine rich hydrophobic domain 1) | 1
-1.9 | migration z between -2 and 2; enough cells | 0.4 | 5743 | inactive | AMER2 (APC membrane recruitment protein 2) | 1
-0.28 | migration z between -2 and 2; enough cells | 0.75 | 7461 | inactive | DR1 (down-regulator of transcription 1) | 1
-1.44 | migration z between -2 and 2; enough cells | 0.52 | 4595 | inactive | SNX27 (sorting nexin 27) | 1
-0.16 | migration z between -2 and 2; enough cells | 0.78 | 6222 | inactive | FNTB (farnesyltransferase, CAAX box, subunit beta) | 1
0.24 | migration z between -2 and 2; enough cells | 0.85 | 5298 | inactive | PIGF (phosphatidylinositol glycan anchor biosynthesis class F) | 1
-1.17 | migration z between -2 and 2; enough cells | 0.58 | 6140 | inactive | ARL16 (ARF like GTPase 16) | 1
1.56 | migration z between -2 and 2; enough cells | 1.1 | 5354 | inactive | IL23R (interleukin 23 receptor) | 1
-3.14 | migration z below -2; enough cells | 0.2 | 5418 | active | POLD4 (DNA polymerase delta 4, accessory subunit) | 1
1.48 | migration z between -2 and 2; enough cells | 1.27 | 5534 | inactive | OR10S1 (olfactory receptor family 10 subfamily S member 1) | 1

Entries listed so far whose target name begins with G or g:
migration robust z-score | migration class with cell-count check | migration relative to mock | nuclei per well, duplicate mean | Call | target | reagent
-3.87 | migration z below -2; enough cells | 0.06 | 4042 | active | GCK (glucokinase) | 1
-3.48 | under 3300 nuclei; migration not judged | 0.14 | 3080 | inactive | GMEB1 (glucocorticoid modulatory element binding protein 1) | 1

Further results follow:
migration robust z-score | migration class with cell-count check | migration relative to mock | nuclei per well, duplicate mean | Call | target | reagent
0.32 | migration z between -2 and 2; enough cells | 0.86 | 5480 | inactive | CX3CR1 (C-X3-C motif chemokine receptor 1) | 1
0.52 | migration z between -2 and 2; enough cells | 1.02 | 4790 | inactive | SPRR1A (small proline rich protein 1A) | 1
-1.38 | migration z between -2 and 2; enough cells | 0.54 | 6580 | inactive | NPY2R (neuropeptide Y receptor Y2) | 1
0.05 | migration z between -2 and 2; enough cells | 0.9 | 4375 | inactive | CFAP74 (cilia and flagella associated protein 74) | 1
-1.38 | migration z between -2 and 2; enough cells | 0.52 | 6484 | inactive | CFAP74 (cilia and flagella associated protein 74) | 2
0.53 | migration z between -2 and 2; enough cells | 1.02 | 7200 | inactive | TRAPPC11 (trafficking protein particle complex subunit 11) | 1
-1.49 | migration z between -2 and 2; enough cells | 0.5 | 7193 | inactive | CHMP4A (charged multivesicular body protein 4A) | 1
-0.76 | migration z between -2 and 2; enough cells | 0.69 | 5232 | inactive | SEC22B (SEC22 homolog B, vesicle trafficking protein) | 1
-1.27 | migration z between -2 and 2; enough cells | 0.55 | 6316 | inactive | ATMIN (ATM interactor) | 1
-0.54 | migration z between -2 and 2; enough cells | 0.74 | 5799 | inactive | UBXN10 (UBX domain protein 10) | 1
-1.71 | under 3300 nuclei; migration not judged | 0.44 | 3296 | inactive | TMOD1 (tropomodulin 1) | 1
0.11 | migration z between -2 and 2; enough cells | 0.82 | 6086 | inactive | ESR2 (estrogen receptor 2) | 1
1.24 | migration z between -2 and 2; enough cells | 1.21 | 5000 | inactive | DNAJC5 (DnaJ heat shock protein family (Hsp40) member C5) | 1
-0.44 | migration z between -2 and 2; enough cells | 0.72 | 6012 | inactive | ELK3 (ETS transcription factor ELK3) | 1
-0.11 | migration z between -2 and 2; enough cells | 0.86 | 5124 | inactive | THOC3 (THO complex subunit 3) | 1
-1.62 | migration z between -2 and 2; enough cells | 0.46 | 4408 | inactive | ZNF326 (zinc finger protein 326) | 1
-0.43 | migration z between -2 and 2; enough cells | 0.77 | 5348 | inactive | LYPD2 (LY6/PLAUR domain containing 2) | 1
-0.82 | migration z between -2 and 2; enough cells | 0.67 | 5620 | inactive | TMEM79 (transmembrane protein 79) | 1
-1.5 | migration z between -2 and 2; enough cells | 0.5 | 6076 | inactive | SNAPC3 (small nuclear RNA activating complex polypeptide 3) | 1
-5.65 | under 3300 nuclei; migration not judged | -0.29 | 2083 | inactive | KCNH2 (potassium voltage-gated channel subfamily H member 2) | 1
0.13 | migration z between -2 and 2; enough cells | 0.83 | 5098 | inactive | CACNA2D2 | 1
-0.3 | migration z between -2 and 2; enough cells | 0.8 | 6222 | inactive | BTAF1 (B-TFIID TATA-box binding protein associated factor 1) | 1
-0.29 | migration z between -2 and 2; enough cells | 0.75 | 5724 | inactive | ADGRL1 (adhesion G protein-coupled receptor L1) | 1
0.33 | migration z between -2 and 2; enough cells | 0.97 | 4578 | inactive | THEMIS (thymocyte selection associated) | 1
1.07 | migration z between -2 and 2; enough cells | 1.17 | 6772 | inactive | PCDHB14 (protocadherin beta 14) | 1
0.44 | migration z between -2 and 2; enough cells | 0.89 | 6066 | inactive | RB1 (RB transcriptional corepressor 1) | 1
0.18 | migration z between -2 and 2; enough cells | 0.84 | 6542 | inactive | NMBR (neuromedin B receptor) | 1
0.57 | migration z between -2 and 2; enough cells | 1.03 | 5259 | inactive | CAMSAP2 | 1
0.09 | migration z between -2 and 2; enough cells | 0.91 | 5977 | inactive | CDR1 (cerebellar degeneration related 1) | 1
0.6 | migration z between -2 and 2; enough cells | 0.92 | 4884 | inactive | PHLPP2 (PH domain and leucine rich repeat protein phosphatase 2) | 1
1.49 | migration z between -2 and 2; enough cells | 1.27 | 5614 | inactive | CEP76 (centrosomal protein 76) | 1
0.02 | migration z between -2 and 2; enough cells | 0.81 | 6084 | inactive | SLC37A4 | 1
-0.08 | migration z between -2 and 2; enough cells | 0.86 | 5464 | inactive | PLEKHO1 (pleckstrin homology domain containing O1) | 1
-0.74 | migration z between -2 and 2; enough cells | 0.69 | 5877 | inactive | TMEM256 (transmembrane protein 256) | 1
-0.64 | migration z between -2 and 2; enough cells | 0.73 | 4508 | inactive | PLIN5 (perilipin 5) | 1
-0.24 | migration z between -2 and 2; enough cells | 0.82 | 4817 | inactive | MSLN (mesothelin) | 1
-0.08 | migration z between -2 and 2; enough cells | 0.86 | 6055 | inactive | HHIP (hedgehog interacting protein) | 1
0.88 | migration z between -2 and 2; enough cells | 1.11 | 5778 | inactive | PFDN2 (prefoldin subunit 2) | 1
1.4 | migration z between -2 and 2; enough cells | 1.08 | 5714 | inactive | PABPC1 (poly(A) binding protein cytoplasmic 1) | 1
0.2 | migration z between -2 and 2; enough cells | 0.94 | 5890 | inactive | TNFRSF21 (TNF receptor superfamily member 21) | 1
-0.42 | migration z between -2 and 2; enough cells | 0.78 | 6426 | inactive | UFSP2 (UFM1 specific peptidase 2) | 1
0.05 | migration z between -2 and 2; enough cells | 0.82 | 5603 | inactive | PEX2 (peroxisomal biogenesis factor 2) | 1
0.18 | migration z between -2 and 2; enough cells | 0.84 | 6869 | inactive | LPAR1 (lysophosphatidic acid receptor 1) | 1
-1.72 | migration z between -2 and 2; enough cells | 0.44 | 4872 | inactive | AFF1 (ALF transcription elongation factor 1) | 1
